Earlier results in patent US20140314729A1, “NUTRACEUTICAL FORMULATION FOR TREATMENT OF ELEVATED CHOLESTEROL AND CARDIOVASCULAR DISEASE” (Creative Medical Health Inc., priority 2013, published 2014).

Tested on: rats
Conditions: 80 mg/kg given alone, after 4 weeks

## CC(C)c1c(C(=O)Nc2ccccc2)c(-c2ccccc2)c(-c2ccc(F)cc2)n1CC[C@@H](O)C[C@@H](O)CC(=O)O [atorvastatin]
  hepatotoxicity: induced hepatotoxicity
